# Reference: patent US20240417738A1, “IMMUNOTHERAPIES FOR THE TREATMENT OF CANCER” (Ohio State Innovation Foundation, priority 2021, published 2024)
# At least one structure is not confirmed: it was looked up by name or label, or the drawing left a doubt.
# How the values were obtained:
# RAW 264.7 cells = test: In vitro macrophage stimulation imaging; type: cell-based, murine; settings: R848 50 μM, SD-101 300 nM; 200× brightfield
# [1] = tested on: Calreticulin, Hmgb1, Lc3b mRNA in MC38 cells; test: In vitro gene regulation by RT-qPCR; type: cell-based, murine; settings: 8 μM, 24 hours
structure (smiles),measurement,setting,value
"CCOCc1nc2c(N)nc3ccccc3c2n1CC(C)(C)O [R848, 4-amino-2-ethoxymethyl-α, α-dimethyl-1H-imidazol[4,5-c]quinoli-ne-1-ethanol]",Morphological change / macrophage activation,RAW 264.7 cells,partially activated macrophages
same,Hmgb1 mRNA level,[1],Hmgb1 downregulation
